Results from US11077128B2, “Selective inhibitors of Alpha2-containing isoforms of Na,K-ATPase and use thereof for reduction of intraocular pressure” (Yeda Research and Development Co. Ltd., priority 2015, dated 2021).

Tested on: Na,K-ATPase in NPE cells
Format: cell-based, bovine
Conditions: two site model

## CC1CN(C2CCC2)CCC(O[C@@H]2C(C)O[C@@H](O[C@@H]3C(C)O[C@@H](O[C@H]4CC[C@@]5(C)C(CCC6C5CC(O)[C@]5(C)[C@@H](C7=CC(=O)OC7)CC[C@]65O)C4)C[C@@H]3O)C[C@@H]2O)O1 (stereo in doubt) [DcB, 4-((3S,5R,8R,9S,10S,12R,13S,14S,17R)-3-(((2R,4S,5S,6R)-5-(((2S,4S,5S,6R)-5-((4-cyclobutyl-2-methyl-1,4-oxazepan-7-yl)oxy)-4-hydroxy-6-methyltetrahydro-2H-pyran-2-yl)oxy)-4-hydroxy-6-methyltetrahydro-2H-pyran-2-yl)oxy)-12,14-dihydroxy-10,13-dimethylhexadecahydro-1H-cyclopenta[a]phenanthren-17-yl)furan-2(5H)-one]
  A α1, 2 sites model (fraction of α1): 0.34 ± 0.097
  A α2, 2 sites model (fraction of α2): 0.66 ± 0.090

The amount applied is not stated for every result.
